Data taken from the supplement of paper PMC10849652.
Some of the results follow.

The chains behind the UniProt entries cited, without tags or fusion partners. Where a name states a change or a piece, a line headed by the entry shows the natural chain unless it says otherwise.
UniProt Q96RS6: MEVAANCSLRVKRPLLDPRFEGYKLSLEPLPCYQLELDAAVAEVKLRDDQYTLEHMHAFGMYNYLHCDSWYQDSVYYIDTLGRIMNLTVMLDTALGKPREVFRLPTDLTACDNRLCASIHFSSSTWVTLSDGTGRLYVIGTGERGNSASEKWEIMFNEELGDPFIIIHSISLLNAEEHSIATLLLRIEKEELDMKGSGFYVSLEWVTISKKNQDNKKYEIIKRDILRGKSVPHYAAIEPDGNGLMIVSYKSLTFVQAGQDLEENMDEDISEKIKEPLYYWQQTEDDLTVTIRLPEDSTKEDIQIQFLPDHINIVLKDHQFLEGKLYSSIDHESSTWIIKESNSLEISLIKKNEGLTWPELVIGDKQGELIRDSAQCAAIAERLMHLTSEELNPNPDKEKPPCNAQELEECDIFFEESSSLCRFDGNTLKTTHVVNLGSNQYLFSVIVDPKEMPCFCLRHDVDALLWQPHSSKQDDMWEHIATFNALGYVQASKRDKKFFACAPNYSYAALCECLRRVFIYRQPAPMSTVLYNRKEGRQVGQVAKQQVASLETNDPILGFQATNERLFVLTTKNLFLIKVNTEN
UniProt Q13232: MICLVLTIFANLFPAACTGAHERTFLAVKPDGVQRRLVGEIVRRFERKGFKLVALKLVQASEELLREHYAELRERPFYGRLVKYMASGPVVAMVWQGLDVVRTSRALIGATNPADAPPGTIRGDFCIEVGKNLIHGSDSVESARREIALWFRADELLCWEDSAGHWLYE
UniProt P53370: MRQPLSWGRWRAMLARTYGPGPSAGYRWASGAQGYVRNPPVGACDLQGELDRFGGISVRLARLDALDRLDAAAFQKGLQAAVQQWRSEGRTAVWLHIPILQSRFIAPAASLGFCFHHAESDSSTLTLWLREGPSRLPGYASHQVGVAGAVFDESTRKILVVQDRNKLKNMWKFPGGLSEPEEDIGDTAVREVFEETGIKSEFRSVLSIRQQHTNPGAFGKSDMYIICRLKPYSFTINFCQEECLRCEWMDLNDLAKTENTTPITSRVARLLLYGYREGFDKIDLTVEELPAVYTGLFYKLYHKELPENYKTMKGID
UniProt O75052: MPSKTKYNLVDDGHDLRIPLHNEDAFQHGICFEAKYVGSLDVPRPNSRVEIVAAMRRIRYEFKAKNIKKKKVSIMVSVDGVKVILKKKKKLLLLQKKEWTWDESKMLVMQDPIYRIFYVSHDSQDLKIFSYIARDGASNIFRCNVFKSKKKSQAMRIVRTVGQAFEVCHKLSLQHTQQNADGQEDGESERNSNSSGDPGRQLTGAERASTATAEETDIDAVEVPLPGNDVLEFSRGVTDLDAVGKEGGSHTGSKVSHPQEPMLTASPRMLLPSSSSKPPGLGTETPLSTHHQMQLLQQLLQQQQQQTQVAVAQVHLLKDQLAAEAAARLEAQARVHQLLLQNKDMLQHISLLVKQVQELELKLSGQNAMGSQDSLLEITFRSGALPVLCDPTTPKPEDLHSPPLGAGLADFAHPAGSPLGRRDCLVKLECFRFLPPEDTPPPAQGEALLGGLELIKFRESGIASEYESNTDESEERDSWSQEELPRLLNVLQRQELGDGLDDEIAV
UniProt O60361, whole entry, looked up: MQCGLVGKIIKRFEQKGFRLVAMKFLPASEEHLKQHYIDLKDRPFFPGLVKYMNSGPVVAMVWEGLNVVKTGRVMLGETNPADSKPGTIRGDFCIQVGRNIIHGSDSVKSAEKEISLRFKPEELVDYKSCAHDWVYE
UniProt Q8WV22: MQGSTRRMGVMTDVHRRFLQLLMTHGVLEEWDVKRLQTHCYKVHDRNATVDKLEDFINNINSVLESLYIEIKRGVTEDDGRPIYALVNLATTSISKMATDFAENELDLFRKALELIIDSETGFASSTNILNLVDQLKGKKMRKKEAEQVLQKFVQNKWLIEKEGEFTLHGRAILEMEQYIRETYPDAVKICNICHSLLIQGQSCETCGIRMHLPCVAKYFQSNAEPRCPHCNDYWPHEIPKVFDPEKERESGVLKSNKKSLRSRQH
UniProt Q08J23, whole entry, looked up: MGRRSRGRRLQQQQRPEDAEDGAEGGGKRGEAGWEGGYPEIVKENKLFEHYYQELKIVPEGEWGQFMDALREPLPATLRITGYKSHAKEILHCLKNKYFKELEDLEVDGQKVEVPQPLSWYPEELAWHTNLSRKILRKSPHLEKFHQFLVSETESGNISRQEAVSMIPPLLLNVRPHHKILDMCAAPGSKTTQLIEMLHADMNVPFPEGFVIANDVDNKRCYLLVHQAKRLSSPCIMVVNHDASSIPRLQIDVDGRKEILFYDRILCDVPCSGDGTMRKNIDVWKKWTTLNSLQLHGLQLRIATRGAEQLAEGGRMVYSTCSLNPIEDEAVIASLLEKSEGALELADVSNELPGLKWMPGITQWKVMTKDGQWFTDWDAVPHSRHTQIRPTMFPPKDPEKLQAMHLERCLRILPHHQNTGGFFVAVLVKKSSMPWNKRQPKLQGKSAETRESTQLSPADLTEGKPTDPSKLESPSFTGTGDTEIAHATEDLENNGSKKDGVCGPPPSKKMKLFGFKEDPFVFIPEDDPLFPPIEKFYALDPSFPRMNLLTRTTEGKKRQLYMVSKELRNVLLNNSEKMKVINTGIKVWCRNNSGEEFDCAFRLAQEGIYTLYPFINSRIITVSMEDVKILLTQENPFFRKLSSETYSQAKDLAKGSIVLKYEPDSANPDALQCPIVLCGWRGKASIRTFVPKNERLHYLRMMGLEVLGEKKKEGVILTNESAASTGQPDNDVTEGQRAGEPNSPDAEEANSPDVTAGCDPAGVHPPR
UniProt Q96CB9: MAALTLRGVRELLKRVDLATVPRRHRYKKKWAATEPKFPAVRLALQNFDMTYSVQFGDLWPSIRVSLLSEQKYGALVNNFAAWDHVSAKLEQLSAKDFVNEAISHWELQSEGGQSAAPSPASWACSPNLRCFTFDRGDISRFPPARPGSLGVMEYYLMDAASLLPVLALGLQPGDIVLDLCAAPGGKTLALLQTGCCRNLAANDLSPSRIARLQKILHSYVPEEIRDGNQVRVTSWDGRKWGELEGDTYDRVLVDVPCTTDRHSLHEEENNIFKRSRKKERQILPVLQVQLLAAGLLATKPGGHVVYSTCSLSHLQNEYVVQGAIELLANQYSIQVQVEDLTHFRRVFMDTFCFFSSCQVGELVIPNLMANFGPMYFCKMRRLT
UniProt P13056: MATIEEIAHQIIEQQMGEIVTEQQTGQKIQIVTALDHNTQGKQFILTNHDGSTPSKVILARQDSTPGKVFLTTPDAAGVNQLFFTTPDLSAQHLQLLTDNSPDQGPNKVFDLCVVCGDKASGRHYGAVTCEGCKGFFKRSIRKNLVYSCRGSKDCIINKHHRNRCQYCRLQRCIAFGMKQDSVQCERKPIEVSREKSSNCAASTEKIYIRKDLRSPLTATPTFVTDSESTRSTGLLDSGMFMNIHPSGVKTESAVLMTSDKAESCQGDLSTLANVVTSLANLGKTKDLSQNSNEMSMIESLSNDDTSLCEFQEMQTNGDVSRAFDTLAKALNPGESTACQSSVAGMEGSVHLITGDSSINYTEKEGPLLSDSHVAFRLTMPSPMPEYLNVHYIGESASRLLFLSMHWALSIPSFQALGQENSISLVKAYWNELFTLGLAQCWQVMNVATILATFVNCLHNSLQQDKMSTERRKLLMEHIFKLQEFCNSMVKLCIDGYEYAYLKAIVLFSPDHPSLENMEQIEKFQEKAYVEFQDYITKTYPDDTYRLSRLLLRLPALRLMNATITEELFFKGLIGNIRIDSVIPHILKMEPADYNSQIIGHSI
UniProt P0C024: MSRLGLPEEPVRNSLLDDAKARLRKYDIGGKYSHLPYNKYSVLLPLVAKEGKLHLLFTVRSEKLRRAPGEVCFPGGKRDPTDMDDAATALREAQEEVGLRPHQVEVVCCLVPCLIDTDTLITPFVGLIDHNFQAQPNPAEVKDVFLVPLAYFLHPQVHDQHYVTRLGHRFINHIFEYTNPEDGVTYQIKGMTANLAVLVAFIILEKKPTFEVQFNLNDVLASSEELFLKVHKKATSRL
UniProt Q8TB37: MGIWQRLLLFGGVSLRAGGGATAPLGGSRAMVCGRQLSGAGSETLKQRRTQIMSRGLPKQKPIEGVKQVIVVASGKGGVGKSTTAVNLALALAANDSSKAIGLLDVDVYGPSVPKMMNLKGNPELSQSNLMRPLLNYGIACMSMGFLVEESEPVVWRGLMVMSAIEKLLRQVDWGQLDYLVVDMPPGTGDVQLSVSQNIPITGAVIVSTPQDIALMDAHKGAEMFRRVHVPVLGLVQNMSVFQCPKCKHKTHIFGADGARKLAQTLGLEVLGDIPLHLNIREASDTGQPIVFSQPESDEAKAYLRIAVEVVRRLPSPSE
UniProt Q96AB6: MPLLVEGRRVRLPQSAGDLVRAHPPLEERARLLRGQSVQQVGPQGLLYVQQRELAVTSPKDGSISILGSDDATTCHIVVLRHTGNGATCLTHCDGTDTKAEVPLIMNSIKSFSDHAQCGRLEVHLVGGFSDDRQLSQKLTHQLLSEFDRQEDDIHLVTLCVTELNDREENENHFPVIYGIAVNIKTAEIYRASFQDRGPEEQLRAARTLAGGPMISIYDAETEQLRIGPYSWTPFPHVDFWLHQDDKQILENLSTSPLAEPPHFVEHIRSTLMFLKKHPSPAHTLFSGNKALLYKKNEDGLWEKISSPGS

Experiments:
Assay in all cases: log2 fold change, soluble protein after heating vs DMSO (PISA); higher = thermal stabilisation; K562 lysate, 10 uM; active = over 0.2 and 3.5 SD of the protein, either way, in both replicates (recomputed)
[1] = compound: CCCS(=O)(=O)Nc1ccc(F)c(C(=O)c2c[nH]c3ncc(-c4ccc(Cl)cc4)cc23)c1F [vemurafenib]
Procedure, shortened: (§1)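 Thermal stability, expressed as log-two fold change relative to solvent controls, is given from duplicates. Crude K562 extract in PBS pH 7.4 with 1 mM MgCl2, at 1 mg/mL protein, was treated with 10 μM compound for 30 min and heated in aliquots for 3 min across 48°C-58°C. After pooling, adjustment to 0.5% NP-40 at 4°C and centrifugation at 21,000xg for 90 min, supernatant protein was measured by TMTpro 16plex LC-MS/MS with channel sums equalised.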

[2] = compound: CCCS(=O)(=O)Nc1ccc(F)c(C(=O)c2c[nH]c3ncc(Cl)cc23)c1F
Procedure, shortened: as §1

[3] = compound: CCN(CCCOc1ccc2c(Nc3cc(CC(=O)Nc4cccc(F)c4)[nH]n3)ncnc2c1)CCOP(=O)(O)O [barasertib]
Procedure, shortened: as §1

[4] = compound: CC[C@@H]1C(=O)N(C)c2cnc(Nc3ccc(C(=O)NC4CCN(C)CC4)cc3OC)nc2N1C1CCCC1
Procedure, shortened: as §1

[5] = compound: CC[C@@H]1C(=O)N(C)c2cnc(Nc3ccc(C(=O)N[C@H]4CC[C@H](N5CCN(CC6CC6)CC5)CC4)cc3OC)nc2N1C(C)C [volasertib]
Procedure, shortened: as §1

[6] = compound: CCn1c(C(=O)N(C2CC2)C2CC2)cc2c3c(ncn3C)c(Nc3cc(C)n(C)n3)nc21
Procedure, shortened: as §1

[7] = compound: CCn1cc(-c2ccnc3[nH]c(-c4cccc(CN(C)C)c4)cc23)c(-c2ccc(NC(=O)N(C)C)cc2)n1
Procedure, shortened: as §1

[8] = compound: CN1CCC(CNc2ccc3ncc(-c4cccc(OC(F)(F)F)c4)n3n2)CC1
Procedure, shortened: as §1

[9] = compound: CN1CCN(CCOc2cc(OC3CCOCC3)c3c(Nc4c(Cl)ccc5c4OCO5)ncnc3c2)CC1 [saracatinib]
Procedure, shortened: as §1

[10] = compound: CN1CCN(c2nc(C3=C(c4c[nH]c5ccccc45)C(=O)NC3=O)c3ccccc3n2)CC1 [sotrastaurin]
Procedure, shortened: as §1

[11] = compound: CN1CC[C@H](c2c(O)cc(O)c3c(=O)cc(-c4ccccc4Cl)oc23)[C@H](O)C1 [alvocidib]
Procedure, shortened: as §1

[12] = compound: CN1CCc2c(c3ccccc3n2Cc2ccc(C(=O)NO)cc2)C1 [Tubastatin A]
Procedure, shortened: as §1

[13] = compound: CNC(=O)C1=CC=CC=C1NC2=NC(=NC=C2Cl)NC3=C(C=C(C=C3)N4CCOCC4)OC
Procedure, shortened: as §1

[14] = compound: CNC(=O)c1ccc(Nc2ncc(C(F)(F)F)c(NCc3nccnc3N(C)S(C)(=O)=O)n2)cc1 [defactinib]
Procedure, shortened: as §1

[15] = compound: CNc1nc(-c2ccc3c(N)n[nH]c3c2)cc(N2C[C@@H](C(=O)NC3CCCCC3)CC[C@H]2C)n1
Procedure, shortened: as §1

[16] = compound: COC(=O)N[C@@H](C)CNc1nccc(-c2cn(C(C)C)nc2-c2cc(Cl)cc(NS(C)(=O)=O)c2F)n1 [encorafenib]
Procedure, shortened: as §1

[17] = compound: COC(=O)[C@H](CCSC)NC(=O)C1=C(C=C(C=C1)NC[C@H](CS)N)C2=CC=CC=C2
Procedure, shortened: as §1

[18] = compound: COc1cc(Nc2ncc3c(n2)-c2ccc(Cl)cc2C(c2c(F)cccc2OC)=NC3)ccc1C(=O)O [alisertib]
Procedure, shortened: as §1

[19] = compound: COc1cc2nc(-c3cc(F)ccc3O)nc(N[C@@H]3CNC[C@H]3C(C)(C)O)c2cc1OC
Procedure, shortened: as §1

[20] = compound: COc1cc2ncnc(Nc3ccc(F)c(Cl)c3)c2cc1OCCCN1CCOCC1 [gefitinib]
Procedure, shortened: as §1

Measured: log2 fold change

NUDCD1 (UniProt Q96RS6)
inactive: [1] 0.007 | [2] 0.002 | [3] -0.002 | [4] -0.014 | [5] -0.005 | [6] -0.002 | [7] -0.065 | [8] 0.03 | [9] -0.003 | [10] -0.003 | [11] -0.02 | [12] -0.001 | [13] -0.005 | [14] -0.043 | [15] -0.01 | [16] -0.007 | [17] 0.023 | [18] 0.003 | [19] 0.005 | [20] -0.033

NOP53 (UniProt Q9NZM5)
inactive: [1] 0.021 | [2] 0.033 | [3] 0.022 | [4] 0.027 | [5] -0.001 | [6] -0.028 | [7] 0.014 | [8] -0.168 | [9] -0.016 | [10] -0.01 | [11] 0.047 | [12] -0.008 | [13] -0.014 | [14] 0.039 | [15] 0.066 | [16] 0.073 | [17] 0.003 | [18] 0.255 | [19] -0.008 | [20] -0.038

NME3 (UniProt Q13232)
inactive: [1] 0.027 | [2] 0.003 | [3] -0.002 | [4] 0.035 | [5] -0.021 | [6] 0.024 | [7] 0.006 | [8] 0.03 | [9] -0.072 | [10] 0.036 | [11] 0.013 | [12] -0.002 | [13] 0.025 | [14] -0.013 | [15] -0.037 | [16] 0.006 | [17] -0.114 | [18] -0.198 | [19] 0.027 | [20] -0.053

NUDT6 (UniProt P53370)
inactive: [1] 0.022 | [4] 0.091 | [6] -0.085 | [9] 0.05 | [10] -0.033 | [12] 0.042 | [13] 0.154 | [14] -0.002 | [15] -0.024 | [16] -0.021 | [17] -0.015

NOS1AP (UniProt O75052)
inactive: [1] -0.019 | [2] -0.034 | [3] 0.074 | [4] -0.202 | [5] 0.018 | [6] -0.211 | [7] -0.239 | [8] 0.214 | [10] 0.117 | [11] -0.065 | [12] 0.143 | [13] -0.007 | [14] -0.307 | [16] 0.007 | [17] 0.111 | [18] 0.155 | [19] 0.062 | [20] -0.032

NME2P1 (UniProt O60361)
inactive: [1] 0.256 | [2] -0.007 | [3] 0.027 | [5] 0.046 | [6] -0.173 | [7] -0.306 | [8] 0.14 | [9] 0.048 | [10] 0.059 | [11] -0.184 | [12] 0.157 | [13] -0.148 | [14] -0.081 | [15] 0.268 | [18] 0.119 | [19] 0.04 | [20] 0.011

NSMCE1 (UniProt Q8WV22)
inactive: [1] -0.026 | [2] -0.011 | [3] -0.018 | [4] 0.053 | [5] -0.032 | [6] -0.04 | [7] 0.02 | [8] -0.017 | [9] 0.019 | [10] 0.007 | [11] 0.02 | [12] 0 | [13] 0.007 | [14] 0.015 | [15] 0.015 | [16] 0.026 | [17] -0.012 | [18] 0.022 | [19] -0.013 | [20] 0.006

NSUN2 (UniProt Q08J23)
inactive: [1] 0.028 | [2] 0.004 | [3] -0.006 | [4] -0.032 | [5] 0.004 | [6] 0.037 | [7] 0.081 | [8] -0.022 | [9] 0.006 | [10] 0.005 | [11] 0.019 | [12] -0.097 | [13] -0.018 | [14] 0.007 | [15] -0.024 | [16] -0.011 | [17] 0.096 | [18] 0.014 | [19] -0.007 | [20] -0.02

NSUN4 (UniProt Q96CB9)
inactive: [1] 0.192 | [2] -0.068 | [3] 0.018 | [5] 0.051 | [6] -0.041 | [9] 0.251 | [10] 0.066 | [12] -0.115 | [13] -0.134 | [14] -0.094 | [15] 0.071 | [18] -0.048 | [19] 0.093 | [20] 0.033

Two successive records already listed:
NOS1AP (UniProt O75052)
inactive: [1] -0.019 | [2] -0.034 | [3] 0.074 | [4] -0.202 | [5] 0.018 | [6] -0.211 | [7] -0.239 | [8] 0.214 | [10] 0.117 | [11] -0.065 | [12] 0.143 | [13] -0.007 | [14] -0.307 | [16] 0.007 | [17] 0.111 | [18] 0.155 | [19] 0.062 | [20] -0.032

NME2P1 (UniProt O60361)
inactive: [1] 0.256 | [2] -0.007 | [3] 0.027 | [5] 0.046 | [6] -0.173 | [7] -0.306 | [8] 0.14 | [9] 0.048 | [10] 0.059 | [11] -0.184 | [12] 0.157 | [13] -0.148 | [14] -0.081 | [15] 0.268 | [18] 0.119 | [19] 0.04 | [20] 0.011

Later entries.

NR2C1 (UniProt P13056)
inactive: [1] 0.085 | [3] -0.02 | [7] -0.027 | [8] 0.231 | [10] -0.069 | [11] -0.065 | [14] 0.03 | [18] 0.019 | [20] 0.017

NUDT7 (UniProt P0C024)
inactive: [1] 0.052 | [2] -0.058 | [3] 0.117 | [4] 0.111 | [5] -0.081 | [6] -0.034 | [7] 0.087 | [8] -0.205 | [9] -0.05 | [10] -0.008 | [11] -0.043 | [12] 0.099 | [13] 0.188 | [14] -0.057 | [15] 0.194 | [16] 0.007 | [17] 0.012 | [19] -0.058

NUBPL (UniProt Q8TB37)
inactive: [1] 0.193 | [4] 0.072 | [9] -0.043 | [14] -0.105 | [15] 0.055 | [16] -0.012 | [17] -0.149

NTAN1 (UniProt Q96AB6)
inactive: [1] -0.105 | [3] -0.057 | [4] 0.03 | [6] -0.003 | [7] -0.003 | [8] 0.059 | [9] 0.047 | [10] 0.016 | [11] -0.01 | [12] 0.02 | [13] -0.158 | [14] -0.034 | [15] 0.073 | [16] 0.145 | [17] -0.003
